# Percent effect of library compounds

Sequences of proteins named here, by UniProt entry; tags and fusion partners are left off.
UniProt P9WNZ1, whole entry: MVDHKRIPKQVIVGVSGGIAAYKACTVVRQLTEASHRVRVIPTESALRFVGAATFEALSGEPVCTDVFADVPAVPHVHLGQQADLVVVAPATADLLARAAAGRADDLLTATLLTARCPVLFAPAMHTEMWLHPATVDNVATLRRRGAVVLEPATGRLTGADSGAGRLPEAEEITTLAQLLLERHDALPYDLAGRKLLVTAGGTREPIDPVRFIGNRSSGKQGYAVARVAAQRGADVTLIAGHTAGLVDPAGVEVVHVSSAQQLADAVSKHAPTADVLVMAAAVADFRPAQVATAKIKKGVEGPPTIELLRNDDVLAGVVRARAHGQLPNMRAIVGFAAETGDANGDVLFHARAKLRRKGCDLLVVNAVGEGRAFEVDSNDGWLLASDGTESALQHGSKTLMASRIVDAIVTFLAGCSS
UniProt P9WFT3, whole entry: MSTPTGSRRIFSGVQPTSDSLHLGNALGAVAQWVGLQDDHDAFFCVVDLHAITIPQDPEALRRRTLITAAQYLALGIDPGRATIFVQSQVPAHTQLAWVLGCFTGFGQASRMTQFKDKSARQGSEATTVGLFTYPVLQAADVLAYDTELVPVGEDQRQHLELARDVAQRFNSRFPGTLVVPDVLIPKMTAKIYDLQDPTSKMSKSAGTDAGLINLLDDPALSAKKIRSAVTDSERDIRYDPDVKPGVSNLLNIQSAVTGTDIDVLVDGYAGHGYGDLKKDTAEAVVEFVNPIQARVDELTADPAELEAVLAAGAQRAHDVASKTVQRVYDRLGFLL
UniProt I6X8D2, whole entry: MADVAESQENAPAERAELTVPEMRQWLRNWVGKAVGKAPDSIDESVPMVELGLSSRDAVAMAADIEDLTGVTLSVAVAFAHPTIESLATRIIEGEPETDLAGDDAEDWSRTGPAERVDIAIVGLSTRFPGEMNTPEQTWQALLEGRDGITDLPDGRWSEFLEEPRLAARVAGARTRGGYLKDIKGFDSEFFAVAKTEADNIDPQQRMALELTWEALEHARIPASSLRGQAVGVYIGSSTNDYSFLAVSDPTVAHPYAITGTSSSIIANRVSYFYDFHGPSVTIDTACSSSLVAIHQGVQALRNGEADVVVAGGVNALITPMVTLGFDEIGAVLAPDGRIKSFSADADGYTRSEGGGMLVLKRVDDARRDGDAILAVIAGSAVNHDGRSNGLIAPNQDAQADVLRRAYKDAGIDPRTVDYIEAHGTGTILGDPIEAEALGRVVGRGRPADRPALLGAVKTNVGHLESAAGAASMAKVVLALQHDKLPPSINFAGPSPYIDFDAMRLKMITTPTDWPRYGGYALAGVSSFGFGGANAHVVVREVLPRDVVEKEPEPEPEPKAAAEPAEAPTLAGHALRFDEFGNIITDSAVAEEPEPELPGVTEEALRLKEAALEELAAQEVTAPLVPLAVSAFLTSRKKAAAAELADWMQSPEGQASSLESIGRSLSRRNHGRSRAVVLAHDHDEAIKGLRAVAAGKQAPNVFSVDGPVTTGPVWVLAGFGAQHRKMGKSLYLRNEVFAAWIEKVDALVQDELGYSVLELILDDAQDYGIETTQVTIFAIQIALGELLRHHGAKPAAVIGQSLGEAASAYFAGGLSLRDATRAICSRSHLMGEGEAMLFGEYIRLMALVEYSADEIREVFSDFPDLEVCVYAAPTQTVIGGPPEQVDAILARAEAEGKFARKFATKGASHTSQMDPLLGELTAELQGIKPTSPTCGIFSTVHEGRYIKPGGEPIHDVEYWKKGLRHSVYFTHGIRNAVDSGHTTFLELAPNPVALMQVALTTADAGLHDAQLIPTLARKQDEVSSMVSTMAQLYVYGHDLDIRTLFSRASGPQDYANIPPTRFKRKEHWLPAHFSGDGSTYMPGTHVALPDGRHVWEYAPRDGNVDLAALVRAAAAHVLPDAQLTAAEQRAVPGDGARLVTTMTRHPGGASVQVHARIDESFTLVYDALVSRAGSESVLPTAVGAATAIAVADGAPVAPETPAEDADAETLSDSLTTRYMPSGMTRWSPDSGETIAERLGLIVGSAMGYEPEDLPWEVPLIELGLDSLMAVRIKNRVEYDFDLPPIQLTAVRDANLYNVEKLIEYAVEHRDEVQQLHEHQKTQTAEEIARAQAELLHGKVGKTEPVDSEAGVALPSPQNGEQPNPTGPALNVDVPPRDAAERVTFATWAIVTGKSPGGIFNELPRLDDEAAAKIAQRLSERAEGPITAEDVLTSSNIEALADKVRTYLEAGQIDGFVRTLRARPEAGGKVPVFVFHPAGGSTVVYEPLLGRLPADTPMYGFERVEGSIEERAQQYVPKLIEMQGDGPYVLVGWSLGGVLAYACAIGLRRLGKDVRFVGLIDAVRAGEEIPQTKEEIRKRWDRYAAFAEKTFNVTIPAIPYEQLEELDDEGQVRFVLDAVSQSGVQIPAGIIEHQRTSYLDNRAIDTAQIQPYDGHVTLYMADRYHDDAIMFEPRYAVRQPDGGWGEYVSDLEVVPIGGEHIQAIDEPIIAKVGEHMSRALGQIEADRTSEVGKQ

Results are given as percent effect. The record does not define 0% and 100%; most values in the screen are far below 50% and negative numbers occur (in some assays of this library far below -100). Compounds were drawn at random from those tested, without regard to their results. A dash means the value is not listed here; it may have been measured.

A: 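Coenzyme A biosynthesis protein CoaBC, Mycobacterium tuberculosis (UniProt P9WNZ1). Enzyme assay of CoaBC with a phosphate dye (Biomol Green) read at 650 nm. Concentration: 30 µM. Direction is inferred from only a few compounds that gave an IC50; most scored high, so higher reads as stronger inhibition. Most strong results did not repeat in a second test. Size under these conditions: about 67,000 compounds, about 40 of them at 50% or above in at least one test.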
B: 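Tryptophan-tRNA ligase, Mycobacterium tuberculosis (UniProt P9WFT3). Enzyme assay of tryptophanyl-tRNA synthetase; the read-out is not stated. Compounds at 10 µM. Direction is not recorded; retested compounds ran higher, which suggests that high means inhibition. Of about 65,000 compounds tested this way, about 64 (0.098%) reached 50% or more in at least one test.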
C: 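Enzyme assay of the thioesterase domain of polyketide synthase 13; the read-out is not stated. Target: Polyketide synthase Pks13, Mycobacterium tuberculosis (UniProt I6X8D2). Concentration: 30 µM. The record gives no direction; the compounds picked for IC50 retests had high values, so higher reads as stronger inhibition. Of about 67,000 compounds tested this way, about 300 (0.46%) reached 50% or more in at least one test.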

structure | A | B | C
Cc1ccccc1S(=O)(=O)N1CCCCC1c1ccn[nH]1 (centres undefined) | 5.89 | 1.25 | -18.49
O=C(NCCNC(=O)C1CCN(c2ncccn2)CC1)c1ccoc1 | -13.55 | -4.479 | -8.313
CCC1CN(CC(=O)Nc2sccc2C#N)CCO1 (centres undefined) | -1.33 | -3.302 | -6.056
CCOC(=O)c1coc(N2CCN(Cc3cc(C)cc(C)c3)C(=O)C2)n1 | 1.229 | 1.27 | 24.09
CCCS(=O)(=O)N1CCOC2(CCCN(c3ccc(C)nn3)C2)C1 (centres undefined) | 5.212 | 0 | -21.26
CC1COCCN1C(=O)COc1cccc(Oc2ccccn2)c1 (centres undefined) | 0.8505 | 0 | 6.58
CCOC(=O)[C@]12CCCN(Cc3nccs3)C[C@H]1CN(C(C)C)C2 | 0.6316 | 0.07969 | -6.188
Fc1ccc(C2(CNCC(F)F)CCOC2)cc1 (centres undefined) | -7.753 | -1.698 | -7.516
CNc1cc(C2CN(C(=O)c3ccccc3)CCO2)nc(C)n1 (centres undefined) | -8.466 | 3.907 | 4.213
CC(CCc1ccc(O)cc1)NC1CCN(C(=O)C(C)C)CC1 (centres undefined) | 1.225 | 2.84 | -14.98
CCCC(=O)N1CCCC(c2ccccn2)C1 (centres undefined) | 5.828 | 6.635 | -5.493
CCN1CCN2CCCN(S(=O)(=O)c3cccc(F)c3)C2C1=O (centres undefined) | 6.388 | -1.27 | -17.53
CC(C)(C)NC(=O)[C@@H]1CNC[C@]12Cc1ccccc1C(=O)N2 | 2.713 | -4.617 | -
COCC1CN(C(=O)COc2ccccc2)Cc2ncn(C)c21 (centres undefined) | - | -0.1079 | -31.46
CNC(=O)CN1CCC(NC(=O)Cc2ccccc2OC(C)C)CC1 | -5.645 | -2.3 | -14.2
CCOCC(=O)Nc1cc(-n2nnnc2C2CC2)ccc1F | -0.9677 | 5.759 | -7.049
CN(CC(O)C1CC1)C(=O)c1ccc(-c2nc(C3CC3)no2)cc1 (centres undefined) | -5.882 | 0.9877 | -7.106
CS(=O)(=O)N1CCOCC2(CN(Cc3ccco3)CCO2)C1 (centres undefined) | 4.946 | 0.2467 | -7.694
NC(=O)C1CCN(C(=O)Cc2ccc(Cl)c(Cl)c2)CC1 | - | -1.342 | -4.481
Cc1ccccc1C(=O)N1CCCn2nnc(Cn3cccn3)c2C1 | 3.055 | -8.656 | -16.09
CC(C)c1cc(NCC(O)c2ccncc2)n2nccc2n1 (centres undefined) | 12.88 | 15.04 | 3.33
Cc1cnn(CC(=O)N(CC2CN(C)CCO2)c2nccs2)c1 (centres undefined) | 2.058 | 0.9331 | -2.054
COc1cccc2ccc(CN3CCN(c4ncccn4)CC3)nc12 | 1.716 | -18.15 | -15.58
COC(=O)CN(C)C1CCc2ccccc21 (centres undefined) | 2.926 | -1.887 | -0.9196
O=C(NCc1ccccc1)N1C[C@H]2CCN[C@H]2C1 | -0.9009 | 2.616 | -12.24
CCN(Cc1ccc2c(c1)OCO2)C(=O)c1ccc(C)[nH]c1=O | -1.33 | 2.044 | -14.86
CSc1ccc(S(=O)(=O)NC2CNC(=O)C2)cc1 (centres undefined) | -3.353 | -2.862 | -12.8
Cc1noc(CCCC(=O)N(CC2CCOC2)C2CC2)n1 (centres undefined) | 2.273 | -1.56 | -24.73
O=c1[nH]c(CCN2CCCC2Cn2cncn2)nc2ccccc12 (centres undefined) | 14.32 | -1.817 | -15.6
CSc1nc2ccsc2c(=O)n1CC(=O)NC1CCCCC1 | 5.665 | -0.3589 | -20.51
CSCC[C@H](NC(C)=O)C(=O)N(C)Cc1ccc(-n2cccn2)cc1 | 4.294 | -2.549 | -27.2
Cc1nc(CN(C)C2CCN(CC(=O)N(C)CCC#N)C2)no1 (centres undefined) | 1.282 | -3.263 | 18.64
CSc1cc2c(cc1NC(=O)N(C)Cc1ccncc1)OCCO2 | 3.415 | -5.866 | -5.511
Cc1nnc(N2C[C@H](C(=O)NCC3CC3)[C@@H]3CCO[C@@H]3C2)s1 | 1.648 | -3.859 | -6.763
COc1ccccc1-c1cc(NC(=O)COCC2CC2)[nH]n1 | -2.174 | -3.091 | -10.73
C[C@@H]1CN(C(=O)C2CCS(=O)(=O)CC2)CC[C@@]1(O)C1CCOCC1 | -0.5612 | 5.083 | -16.96
O=C1N(CC2CCCCC2)CCCC1(O)CN1CCc2[nH]ncc2C1 (centres undefined) | 5.034 | 2.457 | -58.69
Cc1cccc(CN2CCC3(CCCN(C(=O)N(C)C)C3)C2=O)n1 (centres undefined) | -3.579 | -1.355 | -10.51
COC[C@@]12CC[C@@H](N3CCOCC3)C[C@H]1CCN(c1ncccc1Cl)C2 | 11.4 | -0.919 | -14.05
CCSc1ccc(C(=O)N2CCCCC2C(=O)N2CCCC2)cn1 (centres undefined) | 0.9685 | -1.708 | -8.229
CS(=O)(=O)c1cccc(Cl)c1C(=O)NCCN1C(=O)CCC1=O | 1.442 | 3.082 | -3.568
CCNc1ncc(C(=O)NCCCc2ccncc2)cn1 | -0.3727 | -0.5789 | -1.79
Cc1noc(C)c1CN1CCc2ncnc(-c3ccccc3)c2CC1 | -2.963 | - | -45.49
CC(C)c1cc(C(=O)N2CC[C@@H](c3ccc4c(c3)OCO4)[C@H](O)C2)[nH]n1 | -3.609 | -3.434 | -9.605
CC(=O)NCC(=O)N1CCN(C)c2ncccc2C1 | -0.618 | -3.715 | -8.567
CN(C)CCn1c([C@H]2CCCO2)cc2cccnc21 | 1.471 | - | -6.127
Cc1ccn(-c2ccccc2NCc2ccccn2)n1 | 5.757 | 0.9266 | -9.782
CCOCCN1CCN(C(C)C(=O)Nc2ccnn2C(C)C)CC1 (centres undefined) | 5.847 | 0.6054 | -10.56
CC(C)(C)c1cc(NC(=O)CNC2CCc3ncnn3C2)on1 (centres undefined) | -26.04 | 2.508 | -7.355
Cc1nccn1-c1cc(CNC(=O)COCC2CC2)ccn1 | 0.978 | -0.0783 | -33.35
COC(=O)c1ccc(Cn2nc(C)cc2C)cc1 | 1.841 | 5.432 | -16.87
CNc1cc(N2CCCC2CNCc2ccccn2)ncn1 (centres undefined) | -1.035 | 7.692 | -6.605
N#CCCn1nc(C(F)(F)F)c2c1CCCC2 | 2.086 | - | 44.54
O=C(CCc1cc2n(n1)CCCNC2)NCCS(=O)(=O)N1CCCC1 | -5.383 | -0.7322 | -12.92
Cn1cc(CN2CCn3c(CNC(=O)c4cccn4C)cnc3C2)cn1 | 4.442 | 3.463 | -18.86
c1ncc2c(n1)CN(Cc1nc(-c3ccc4c(c3)OCO4)no1)CC2 | 3.836 | -6.968 | -8.558
CC(C)OCCC(=O)Nc1cc(C(=O)N(C)C(C)C)ccc1Cl | -1.988 | 0.9909 | -0.665
CCN1CCC(CC(=O)NCCc2nc(O)cc(O)n2)CC1 | 5.951 | 2.78 | -11.38
CNC(=O)CCS(=O)(=O)Cc1nnnn1-c1ccccc1 | 8.544 | 2.259 | -13.53
CCOCC(=O)N1C[C@@H](O)[C@H](N(C)Cc2ccc(OC)cc2)C1 | -8.056 | 2.926 | -30.02
COC(=O)CC(c1ccc(OC)c(OC)c1OC)c1c(O)n[nH]c1C (centres undefined) | 4.009 | -2.617 | -9.029
CC(c1ccccn1)N(C)Cc1ccc(CCC(C)(C)O)cc1 (centres undefined) | 3.719 | -5.393 | -32.29
CCc1nc(C2CCCN(c3ncc(Br)cn3)C2)no1 (centres undefined) | 12.97 | -2.096 | 20.54
O=C(O)C1(Cc2ccc(F)cc2F)CCCN(Cc2ccccn2)C1 (centres undefined) | 1.98 | -5.74 | 4.923
Cc1ccc([C@@H]2CN(C(=O)c3cccnn3)C[C@H]2NC(=O)C2CC2)cc1 | 3.509 | 2.089 | -11.64
CC(NCc1ccc(F)cc1)c1ccc2[nH]c(=O)[nH]c2c1 (centres undefined) | 1.096 | -1.847 | -9.122
O=C(c1ccc2nccn2c1)N(CCO)Cc1ccccc1F | -0.2058 | -0.1006 | -8.948
CCn1nc(C)c2ncnc(N3CCCC(C)C3)c21 (centres undefined) | 2.908 | 2.202 | 0.1008
CNc1nc(C(=O)N2C[C@H]3CC[C@@H]2CN(C2CCOCC2)C3)cs1 | 4.37 | -4.285 | -25.25
Cc1ccc(-c2noc([C@H](N)CC(C)C)n2)nn1 | 10.63 | 6.748 | -24.83
Cc1ccc2cc(C(=O)NCCn3nc4ccccn4c3=O)[nH]c2c1 | -0.2591 | -0.9651 | -7.118

Some entries from above, unchanged:

structure	A	B	C
NC(=O)C1CCN(C(=O)Cc2ccc(Cl)c(Cl)c2)CC1	-	-1.342	-4.481
CCCS(=O)(=O)N1CCOC2(CCCN(c3ccc(C)nn3)C2)C1 (centres undefined)	5.212	0	-21.26
COc1cccc2ccc(CN3CCN(c4ncccn4)CC3)nc12	1.716	-18.15	-15.58
Fc1ccc(C2(CNCC(F)F)CCOC2)cc1 (centres undefined)	-7.753	-1.698	-7.516
CCOCCN1CCN(C(C)C(=O)Nc2ccnn2C(C)C)CC1 (centres undefined)	5.847	0.6054	-10.56
COC(=O)CC(c1ccc(OC)c(OC)c1OC)c1c(O)n[nH]c1C (centres undefined)	4.009	-2.617	-9.029

Data taken from ChEMBL document CHEMBL3988442, “University of Dundee, Small-Polar-MMV Screening Library” (2021).